# Test results as given in PubChem BioAssay AID651789 (National Center for Advancing Translational Sciences (NCATS), 2012).
# Inconclusive means that the source gave no clear call. Such entries were picked first, then a sample of the others. Where the call is inconclusive, the potency comes from a doubtful curve fit. Active and inactive are the calls of the source. Calls follow the shape of the dose curve; as a rule, active = well fitted inhibition curve with a large enough effect; inconclusive = small, poorly fitted or top-dose-only effect; inactive = no such curve, though single readings can be large or run the other way.
# Experiment: Acumen qHTS Assay for Inhibitors of the mTORC1 Signaling Pathway in WT MEF Cells: Hit Validation; also: nearly all actives have a fitted effect of over 60% in size
# Conditions: Acumen imaging; series mostly up to 37.3 µM
# Outline: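 Read-out is immunofluorescent phospho-rpS6 (Ser235/236) normalised to PI-stained cell number, reported as % active cells using a 7.5 nM rapamycin threshold. Cells: WT or Tsc2-/-, p53-/- MEFs, compound-exposed 24 h at 37C; PI count also tracks viability.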
# Potency is read from the fitted curve at half-maximal effect.
row,SMILES,Potency
1,CCOC(=O)C1=C(CN2CCN(c3cc(C)ccc3C)CC2)NC(=O)NC1c1ccc(Cl)cc1 (stereo not drawn),"inconclusive: 14.7 µM [inhibitor, single point]"
2,CCCCCOc1ccc(NC(=O)Cn2c(-c3cncs3)nc3ccccc32)cc1,"inconclusive: 23.3 µM [inhibitor, single point]"
3,Cc1cccc(C(=O)Nc2c3c(nn2-c2ccc(Cl)cc2)CS(=O)(=O)C3)c1,inactive
4,COc1ccccc1C(=O)Nc1ccc(-c2cc(C(F)(F)F)nn2-c2ccccc2)cc1,"inconclusive: 23.3 µM [inhibitor, single point]"
5,Cn1nnnc1SCCCNCc1cccc(OCc2ccc(Cl)cc2)c1,inactive
6,Cc1ccc(NC(=O)c2nc(S(=O)(=O)Cc3ccc(F)cc3)ncc2Cl)cc1C,"inconclusive: 2.07 µM [inhibitor, full curve, poor fit]"
7,Cc1ccc(C2c3c(-c4ccccc4O)n[nH]c3C(=O)N2CCc2ccccc2)cc1 (stereo not drawn),"inconclusive: 26.1 µM [inhibitor, single point]"
8,CC(C)(C)C(=O)Nc1ccc(-c2nc3ccc(NC(=O)C(C)(C)C)cc3[nH]2)cc1,"inconclusive: 26.1 µM [inhibitor, single point]"
